Data from PubChem BioAssay AID504834 (National Center for Advancing Translational Sciences (NCATS), 2011).
The whole screen tested about 320,000 compounds, of which about 22,000 (6.9%) were called active. This list was built around the results that the source calls inconclusive (neither active nor inactive); the mix of calls is not that of the screen. The call rests on the fitted dose curve; in most records, active means well fitted inhibition curve with a large enough effect; inconclusive means small, poorly fitted or top-dose-only effect, or another doubt; inactive means no such curve, though single readings can be large or run the other way. Potencies beside an inconclusive call are fits to weak or partial responses and may not hold up.

assay: Primary qHTS for delayed death inhibitors of the malarial parasite plastid, 96 hour incubation; details: P. falciparum luciferase reporter growth; series mostly up to 28.7 µM; activity change, negative = inhibition: at the top concentration
Procedure, shortened: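 Two parasite generations (96 h, 37 C, 5% CO2) of compound exposure in infected erythrocytes (0.05% parasitemia, 2% hematocrit). Luciferase-reporter P. falciparum; decreased luminescence indicates inhibited growth, aimed at apicoplast-acting delayed death.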
On the % scale 0 is the no-effect control and ±100 the full control effect; potency means the concentration at half of the fitted maximal effect.

Structure (SMILES)	Potency	activity change, negative = inhibition
COc1ccc(Nc2nnc(SCc3cc(=O)n4ccsc4n3)s2)cc1	inconclusive: 4.15 µM [inhibitor, single point]	
COC(=O)c1ccc(NC(=O)c2ccc3nccnc3c2)cc1		inactive: 11.6%
COc1ccc(NS(=O)(=O)c2cccc(C(=O)NCC(c3ccco3)N3CCCCC3)c2)cc1 (stereo not drawn)	inconclusive: 10.4 µM [inhibitor, partial curve, poor fit]	
O=C1CCC(=O)N1c1cccc(-c2nc3ccccc3o2)c1	inconclusive: 9.28 µM [inhibitor, partial curve, poor fit]	
COc1ccc(-c2cn[nH]c2-c2ccc(OC)cc2)cc1		inactive: 3.34%
COc1ccc(N2CCN(CCNC(=O)Nc3cc(Cl)ccc3Cl)CC2)cc1	active: 5.22 µM	
CCn1c(SCC(=O)Nc2nnc(C)s2)nnc1-c1ccncc1	inconclusive: 18.5 µM [inhibitor, single point]	
CCN(c1cccc(C)c1)S(=O)(=O)c1cc2c3c(c1)CCN3C(=O)CC2	inconclusive: 18.5 µM [inhibitor, single point]	
Cc1oc(-c2ccc(Cl)cc2)nc1CS(=O)CC(=O)NCCN1CCCC1 (stereo not drawn)	inconclusive: 2.08 µM [inhibitor, partial curve, poor fit]	
COc1ccccc1N1CCN(c2nc3c(C)cccn3c(=O)c2C=O)CC1	inconclusive: 20.8 µM [inhibitor, partial curve, poor fit]	
Cc1cccnc1CCNC(=O)CCc1nnc(CCc2ccccc2)o1	inconclusive: 0.0033 µM [inhibitor, full curve, poor fit]	
Cn1ncc([N+](=O)[O-])c1C(=O)Nc1ccccc1Cl	inconclusive: 18.5 µM [inhibitor, single point]	
O=C(CCN1C(=O)/C(=C\C=C\c2ccccc2)SC1=S)Nc1ccccc1C(=O)O	active: 9.28 µM	
Cc1c(NC(=O)/C(C#N)=C/c2ccc(-c3ccc(Cl)c(Cl)c3)o2)c(=O)n(-c2ccccc2)n1C	inconclusive: 18.5 µM [inhibitor, single point]	
O=[N+]([O-])c1ccccc1NCCNc1ncc(C(F)(F)F)cc1Cl		inactive: 8.35%
Cc1c(C=O)c2ccccc2n1CC(=O)N1CCc2ccccc2C1	inconclusive: 14.7 µM [inhibitor, partial curve, poor fit]	
CC1CC(C)CN(C(=O)c2ccc(C(=O)c3ccccc3)cc2)C1 (stereo not drawn)		inactive: 7.44%
COc1ccc(C(=O)N2N=C3CC(C)(C)OCC3C2c2ccccc2)cc1 (stereo not drawn)	inconclusive: 18.5 µM [inhibitor, single point]	
N#Cc1c(N)nc(SCc2ccncc2)c(C#N)c1-c1cccs1	inconclusive: 11.7 µM [inhibitor, single point]	
COc1cc(CO)c(OC)c([N+](=O)[O-])c1		inactive: 53.1%
Cc1ccccc1NC(=O)C(C#N)Cc1cccnc1 (stereo not drawn)	inconclusive: 0.0828 µM [inhibitor, full curve, poor fit]	
CS(=O)(=O)N(CC(=O)N1CCCC1)Cc1ccc(F)cc1	inconclusive: 3.7 µM [inhibitor, partial curve, poor fit]	
CCC(=O)NCC(c1cccs1)S(=O)(=O)c1ccc(C)cc1 (stereo not drawn)	inconclusive: 5.22 µM [inhibitor, partial curve]	
Cc1ccc(NC(=S)N2CCN(S(=O)(=O)c3ccccc3)CC2)cc1	inconclusive: 20.8 µM [inhibitor, partial curve, poor fit]	
Cc1ccccc1COc1ccc(-c2nnn(CC(=O)O)n2)cc1	inconclusive: 9.28 µM [inhibitor, single point]	

Structure (SMILES)	Potency	activity change, negative = inhibition
COc1ccc(NC(=O)CSc2nc3ccccc3c(=O)n2CCC(=O)N2CCCCC2)cc1	inconclusive: 0.262 µM [inhibitor, full curve, poor fit]	
S=c1[nH]c(-c2cccs2)cn1-c1ccccc1	inconclusive: 11.7 µM [inhibitor, single point]	
O=S(=O)(Nc1ccc2c3c(cccc13)CC2)c1ccc(F)cc1		inactive: 97.7%
CCCC(c1nnnn1C1CCCC1)N1CCN(C(=O)c2ccco2)CC1 (stereo not drawn)	inconclusive: 16.5 µM [inhibitor, single point]	
COc1ccc(S(=O)(=O)N2CCC(C(=O)NCCCn3ccnc3)CC2)cc1C		inactive: -7.74%
CCNC(=O)NC(=O)CSc1nnc(-c2c[nH]c3ccccc23)o1	inconclusive: 18.5 µM [inhibitor, single point]	
Nc1cc(-c2ccco2)no1	inconclusive: 18.5 µM [inhibitor, single point]	
CC1CCCCC1N=CC1=C(O)CC(C)(C)CC1=O (stereo not drawn)	inconclusive: 11.7 µM [inhibitor, partial curve, poor fit]	
O=[N+]([O-])c1ccccc1CNCCCCO		inactive: 76%
COc1cccc(/C=N/n2c(C3CCCCC3)n[nH]c2=S)c1		inactive: 13.6%
CCN(C(=O)c1cc2c(=O)n3ccccc3nc2n1C)C1CCCCC1		inactive: 17.1%
CC(C)CCNC(=O)CNC(=S)N(CCCN1CCOCC1)Cc1cccs1	inconclusive: 13.1 µM [inhibitor, single point]	
Cc1cccc(N/N=C/c2ccc(C)s2)c1	inconclusive: 18.5 µM [inhibitor, single point]	
COc1ccc2nc(/N=C/c3cccc(OC)c3O)sc2c1		inactive: 6.38%
Cc1ccc(NC(=O)COc2ncnc3ccccc23)cc1S(=O)(=O)N1CCOCC1	inconclusive: 0.147 µM [inhibitor, full curve, poor fit]	
Cn1c(SCC(=O)N2CCOCC2)nc2c(c1=O)SCC2		inactive: 1.73%
CCOc1ccc(CC(=O)NCCS(=O)(=O)N2CCN(c3ccccc3)CC2)cc1	inconclusive: 2.08 µM [inhibitor, partial curve, poor fit]	
Cc1ccc2nsnc2c1S(=O)(=O)N(Cc1ccco1)Cc1cc2cccc(C)c2[nH]c1=O	inconclusive: 18.5 µM [inhibitor, single point]	
O=C(c1[nH]ncc1-c1ccccc1)C1CO1 (stereo not drawn)	inconclusive: 0.329 µM [inhibitor, full curve]	
COC1=CC(=O)OC(/C=C/c2ccccc2)C1 (stereo not drawn)		inactive: 38.1%
CCN(Cc1nc2ccccc2c(=O)[nH]1)C(=O)c1cccc(OCc2c(C)noc2C)c1	inconclusive: 9.28 µM [inhibitor, partial curve, poor fit]	
Cc1ccc(N2CC(c3nc4ccccc4n3C)CC2=O)cc1C (stereo not drawn)	inconclusive: 8.28 µM [inhibitor, partial curve, poor fit]	
COc1ccc(NC(=O)CN(C)C(=O)c2sc3ccccc3c2Cl)cc1		inactive: 24.3%
Cc1ccc(O)c(Nc2nc(-c3ccccc3)nc3ccccc23)c1		inactive: -15%
CCn1c(COc2ccc(Cl)cc2)nnc1SCC(=O)Nc1ccc2c(c1)OCO2	active: 10.4 µM	

Structure (SMILES)	Potency	activity change, negative = inhibition
COc1nc(C#N)nc(N(C)C)n1	inconclusive: 16.5 µM [inhibitor, partial curve, poor fit]	
O=C(Nc1nnc(C2CC2)o1)c1ccc(S(=O)(=O)N2CCCc3ccccc32)cc1	inconclusive: 16.5 µM [inhibitor, single point]	
Cc1ccc(-n2c(SCC(=O)N/N=C/C=C/c3ccccc3[N+](=O)[O-])nc3ccccc3c2=O)cc1	active: 10.4 µM	
Cc1cccc(-n2c(SCC(=O)Nc3ncc(Cl)cc3Cl)nc3ccccc32)c1	active: 4.65 µM	
COc1ccc(-c2ccc(CCC(=O)O)n2CC(C)C)cc1	inconclusive: 18.5 µM [inhibitor, single point]	
O=C1CCCC2=C1C(c1cccs1)n1nc(SCc3ccc(C(=O)O)cc3)nc1N2 (stereo not drawn)		inactive: 6.82%
COc1cc(C(=O)NNC(=O)CN2C(=O)NC3(CCCC3)C2=O)cc(OC)c1OC		inactive: -17.8%
O=C(NC(NC(=S)Nc1ccccc1)C(Cl)(Cl)Cl)c1cccc(Cl)c1 (stereo not drawn)	active: 13.1 µM	
Cc1cc(C(=O)COc2cccnc2[N+](=O)[O-])c(C)n1-c1ccccc1F		inactive: 30.2%
CCCCCOc1ccc(Br)cc1/C(C)=N/NC1=NCCN1	inconclusive: 18.5 µM [inhibitor, single point]	
CN1C[C@H](CO)C=C2c3cccc4[nH]cc(c34)C[C@H]21	inconclusive: 4.15 µM [inhibitor, partial curve, poor fit]	
CCCC(=O)Nc1ccc(NC(=O)c2ccco2)cn1	active: 8.28 µM	
CCOC(=O)C1CCCCN1Cc1ccc(-c2ccccc2)cc1 (stereo not drawn)	inconclusive: 16.5 µM [inhibitor, single point]	
CC1CCN(c2ccc([N+](=O)[O-])cn2)CC1	inconclusive: 18.5 µM [inhibitor, single point]	
CCOC(=O)CN1C(=O)C(Sc2n[nH]c(-c3ccccc3)n2)CCc2ccccc21 (stereo not drawn)	active: 5.86 µM	
CN1Cc2cc(C(=O)c3cc(Cl)cc(CSc4ncccn4)c3O)cnc2NC1=O	active: 9.28 µM	
O=C(CN1C(=O)C2C3C=CC(C3)C2C1=O)Nc1ccc(F)cc1 (stereo not drawn)	inconclusive: 10.4 µM [inhibitor, single point]	
CC1CCCCN1C(=O)c1cc(F)c(F)cc1Cl (stereo not drawn)	inconclusive: 14.7 µM [inhibitor, single point]	
CCc1cc(=O)oc2cc(C)cc(OCC(=O)NCCCN3CCOCC3)c12		inactive: 49.2%
NC(=O)c1sc2nc3c(c(-c4ccccc4)c2c1N)CCC3		inactive: -25.1%
COc1ccc(CC(=O)NCC2CCCN(Cc3cccc(C(F)(F)F)c3)C2)cc1 (stereo not drawn)		inactive: 159%
O=C(NC1CCN(S(=O)(=O)c2cccc(F)c2)CC1)c1ccc(F)cc1	active: 10.4 µM	
COc1ccccc1C(=O)NCCC(=O)NCC(c1ccccc1OC)N1CCCC1 (stereo not drawn)	inconclusive: 18.5 µM [inhibitor, single point]	

5 neighbouring records from above:
Structure (SMILES)	Potency	activity change, negative = inhibition
CN1Cc2cc(C(=O)c3cc(Cl)cc(CSc4ncccn4)c3O)cnc2NC1=O	active: 9.28 µM	
O=C(CN1C(=O)C2C3C=CC(C3)C2C1=O)Nc1ccc(F)cc1 (stereo not drawn)	inconclusive: 10.4 µM [inhibitor, single point]	
CC1CCCCN1C(=O)c1cc(F)c(F)cc1Cl (stereo not drawn)	inconclusive: 14.7 µM [inhibitor, single point]	
CCc1cc(=O)oc2cc(C)cc(OCC(=O)NCCCN3CCOCC3)c12		inactive: 49.2%
NC(=O)c1sc2nc3c(c(-c4ccccc4)c2c1N)CCC3		inactive: -25.1%
